Laboratory results published in article PMC3760768.
No constants are given. Whether binding was seen depends on the method and setting. In cells and extracts the contact can be indirect. A result given as binding can be weak or reduced; the word gives no strength. Tags and fused reporters may be left off the sequences shown.

Molecular target: AFR1:HA (Arabidopsis)
Test: co-IP; total proteins from 10-d-old Arabidopsis seedlings (F1, doubly hemizygous AGL18:FLAG and AFR1:HA) immunoprecipitated with anti-HA agarose; western blot with anti-FLAG and anti-HA

B1: AGL18:FLAG (protein, UniProt Q9M2K8 1-256)
chain: MGRGRIEIKKIENINSRQVTFSKRRNGLIKKAKELSILCDAEVALIIFSSTGKIYDFSSVCMEQILSRYGYTTASTEHKQQREHQLLICASHGNEAVLRNDDSMKGELERLQLAIERLKGKELEGMSFPDLISLENQLNESLHSVKDQKTQILLNQIERSRIQEKKALEENQILRKQVEMLGRGSGPKVLNERPQDSSPEADPESSSSEEDENDNEEHHSDTSLQLGLSSTGYCTKRKKPKIELVCDNSGSQVASD
Question: With B1 as the binder, how does the binding read?
Answer: binds
